No constants are given. Whether binding was seen depends on the method and setting. Binding seen in cells or lysates may run through a third protein. A yes stands for co-enrichment or nearness to the bait. Other partners may have been found.
Molecular target: BirA*-SCRIB (UniProt Q14160)
Test: proximity labelling; BioID: BirA*-SCRIB in MCF-7 cells, 50 uM biotin for 24 h, RIPA lysate, streptavidin beads, mass spectrometry

Amino acid sequences for entries named in this document (tags omitted).
UniProt Q14160: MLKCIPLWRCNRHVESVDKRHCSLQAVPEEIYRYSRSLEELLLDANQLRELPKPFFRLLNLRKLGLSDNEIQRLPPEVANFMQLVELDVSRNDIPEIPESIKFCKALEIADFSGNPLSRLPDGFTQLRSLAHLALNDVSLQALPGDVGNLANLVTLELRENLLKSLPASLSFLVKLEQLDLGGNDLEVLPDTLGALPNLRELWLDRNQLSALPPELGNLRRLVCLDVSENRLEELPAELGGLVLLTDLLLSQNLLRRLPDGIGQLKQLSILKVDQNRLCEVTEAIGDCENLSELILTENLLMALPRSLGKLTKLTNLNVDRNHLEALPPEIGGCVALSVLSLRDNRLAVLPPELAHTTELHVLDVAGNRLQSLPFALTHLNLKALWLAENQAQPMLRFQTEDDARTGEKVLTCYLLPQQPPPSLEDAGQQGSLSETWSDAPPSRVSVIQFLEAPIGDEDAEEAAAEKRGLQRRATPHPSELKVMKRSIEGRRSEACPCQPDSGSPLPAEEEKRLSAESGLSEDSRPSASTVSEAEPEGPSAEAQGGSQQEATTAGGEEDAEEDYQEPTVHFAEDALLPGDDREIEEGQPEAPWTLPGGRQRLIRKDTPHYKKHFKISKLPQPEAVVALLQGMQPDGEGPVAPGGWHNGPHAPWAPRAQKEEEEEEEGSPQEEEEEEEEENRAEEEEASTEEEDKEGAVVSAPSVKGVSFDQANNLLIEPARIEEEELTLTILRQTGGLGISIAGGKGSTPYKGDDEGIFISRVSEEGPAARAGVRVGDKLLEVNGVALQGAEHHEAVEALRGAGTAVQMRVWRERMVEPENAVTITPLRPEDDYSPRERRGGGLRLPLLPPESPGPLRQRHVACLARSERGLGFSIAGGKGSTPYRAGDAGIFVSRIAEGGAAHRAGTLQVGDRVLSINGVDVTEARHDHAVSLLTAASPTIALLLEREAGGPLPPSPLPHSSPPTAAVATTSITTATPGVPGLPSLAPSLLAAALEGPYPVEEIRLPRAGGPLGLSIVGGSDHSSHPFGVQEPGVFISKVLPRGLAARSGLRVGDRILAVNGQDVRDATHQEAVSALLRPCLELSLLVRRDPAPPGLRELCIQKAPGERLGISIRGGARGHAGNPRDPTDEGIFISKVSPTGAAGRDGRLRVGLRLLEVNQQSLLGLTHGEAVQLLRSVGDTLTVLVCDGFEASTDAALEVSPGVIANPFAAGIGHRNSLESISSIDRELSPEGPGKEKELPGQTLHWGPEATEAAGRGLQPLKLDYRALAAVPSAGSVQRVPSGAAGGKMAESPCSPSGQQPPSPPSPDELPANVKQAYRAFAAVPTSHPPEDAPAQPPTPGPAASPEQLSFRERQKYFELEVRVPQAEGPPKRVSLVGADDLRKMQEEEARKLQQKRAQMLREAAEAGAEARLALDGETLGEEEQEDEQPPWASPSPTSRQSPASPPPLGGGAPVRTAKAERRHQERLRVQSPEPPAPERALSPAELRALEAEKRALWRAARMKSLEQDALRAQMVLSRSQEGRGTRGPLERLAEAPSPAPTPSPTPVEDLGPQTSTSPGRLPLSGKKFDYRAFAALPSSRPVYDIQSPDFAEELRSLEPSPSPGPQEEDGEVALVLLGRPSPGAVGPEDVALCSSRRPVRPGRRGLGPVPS

binding: binds
Substance: SLC3A2 (from UniProt P08195 1-529)
